According to PubChem BioAssay AID540276 (National Center for Advancing Translational Sciences (NCATS), 2011):
The whole screen tested about 300,000 compounds, of which about 5,400 (1.8%) were called active. Inconclusive results, whose numbers are uncertain, are shown with a selection of clear calls. Calls come from the whole dose curve; tested in HEK293 cells. Potencies of inconclusive entries are doubtful fits and often do not repeat.

Assay: qHTS for inhibitors of binding or entry into cells for Marburg Virus
Settings: Marburg virus pseudotyped entry inhibition, cell reporter; activity change, negative = inhibition: at 37.8 µM (top of the series) unless noted
% is set by controls: 0 for no effect and ±100 for the full control effect; potency is the fitted concentration of half-maximal effect.

Compound | Potency | activity change, negative = inhibition
COC(=O)N/N=C\c1ccccc1OC/C=C/c1ccccc1 | inconclusive: 14.1 µM [inhibitor, single point] | –
COc1ccc(O)c(/C=N/N2CCCCC2)c1 | inconclusive: 3.98 µM [activator, partial curve, poor fit] | –
Cc1ccc(C(=O)N/C(=C/c2ccc(-c3cc(C(F)(F)F)ccc3Cl)o2)C(=O)NCc2cccnc2)cc1 | inconclusive: 20 µM [inhibitor, partial curve, poor fit] | –
COC(=O)c1nn(-c2ccc(-c3ccccc3)cc2)cc1O | inconclusive: 35.5 µM [inhibitor, single point] | –
CC1CCCCN1Cc1c(O)ccc2c(=O)c(-c3nc4ccccc4s3)c(N)oc12 (stereo not drawn) | active: 2.51 µM | –
CN1/C(=C\C(=O)Nc2cccc(Cl)c2)C(C)(C)c2ccccc21 | inconclusive: 15.8 µM [inhibitor, partial curve, poor fit] | –
O=C(NC1=NCCS1)c1ccc(Cl)s1 | inconclusive: 23.1 µM [activator, single point] | –
COc1ccc(C(=O)N2CCC(n3c(C)nc4cc(F)ccc43)CC2)cc1OC | inactive | –
CC1CCCCN1S(=O)(=O)c1ccc(N(C(=O)c2cnccn2)C(C(=O)NC2CCCCC2)c2cccs2)cc1 (stereo not drawn) | inconclusive: 4.47 µM [inhibitor, full curve, poor fit] | –
O=C(NCc1ccc(Cl)cc1)c1ccc(CSc2nc3ccncc3[nH]2)cc1 | inactive | –
C/C(=N\S(=O)(=O)c1ccc(C)cc1)N1CCN(S(=O)(=O)c2ccccc2)C1 | inconclusive: 3.98 µM [activator, partial curve, poor fit] | –
O=c1cc(COc2ccc(Cl)cc2Cl)nc2scc(-c3ccccc3)n12 | inactive | –
O=C(Nc1ccccc1C(F)(F)F)NC1CCCCC1 | inconclusive: 1.64 µM [activator, partial curve] | –
Cc1nn2cc(-c3cccc(Cl)c3)cnc2c1Cl | active: 4.47 µM | –
Cc1ccsc1C(=O)C1CCCN(Cc2cn(C)nc2-c2ccccc2)C1 (stereo not drawn) | inconclusive: 11.2 µM [inhibitor, partial curve, poor fit] | –
CC(=O)c1cc2c(cc1NC(=O)CCCC(=O)O)OCO2 | inactive | –
CCOc1ccc(N(C)Cc2cc(=O)oc3ccc(OCC)cc23)cc1 | inconclusive: 25.1 µM [inhibitor, partial curve, poor fit] | –
COc1ccc(CN2CCN(S(=O)(=O)c3ccccc3)CC2)c(OC)c1OC | inconclusive: 3.55 µM [inhibitor, partial curve, poor fit] | –
Cc1cc(Br)ccc1NC(=O)CN(C)C(=O)c1cc([N+](=O)[O-])ccc1N1CCOCC1 | inactive | –
CC1CCN(C(=O)CSc2ccc(-c3ccc4c(c3)OCCO4)nn2)CC1 | inactive | –
COc1cc(C2c3c(-c4ccccc4O)n[nH]c3C(=O)N2CCO)ccc1OCc1ccccc1 (stereo not drawn) | inconclusive: 5.62 µM [inhibitor, partial curve] | –
Cc1c(C(=O)NCc2cccnc2)oc2ccccc12 | inactive | –

Whole records, looked up by structure:
Cc1ccsc1C(=O)C1CCCN(Cc2cn(C)nc2-c2ccccc2)C1 (stereo not drawn) as listed: Potency: inconclusive: 11.2 µM [inhibitor, partial curve, poor fit]
CCOc1ccc(N(C)Cc2cc(=O)oc3ccc(OCC)cc23)cc1 as listed: Potency: inconclusive: 25.1 µM [inhibitor, partial curve, poor fit]

(further entries)

Compound | Potency | activity change, negative = inhibition
CC(=O)c1cccc(NC(=O)c2nc3ccccc3n(C)c2=O)c1 | inconclusive: 3.55 µM [activator, single point] | –
O=C(Nc1cccc(S(=O)(=O)N2CCCCC2)c1)c1ccc2ccccc2n1 | inactive | –
C/C(=N/OCC(=O)NCCCCCCNC(=O)CO/N=C(/C)c1cccs1)c1cccs1 | inconclusive: 0.631 µM [inhibitor, full curve, poor fit] | –
CCCCC(=O)N/N=C/c1c(O)n(Cc2ccco2)c(=O)[nH]c1=O | – | inconclusive: 4.48% [activator]
COc1ccc(CC(=O)Nc2ccc(-c3nnc(-c4ccccc4)o3)cc2)cc1 | inconclusive: 10 µM [inhibitor, single point] | –
COC(=O)c1ccc(CSc2nc3cc(Cl)ccc3s2)o1 | inconclusive: 17.8 µM [activator, single point] | –
CCc1ccccc1NC(=O)N1CCCc2ccccc21 | inactive | –
Cc1c(CCC(=O)NCC(=O)NCC(=O)O)c(=O)oc2cc3oc4c(c3cc12)CCCC4 | inconclusive: 3.16 µM [inhibitor, single point] | –
Clc1ccsc1-c1csc(-c2cccnc2)n1 | inconclusive: 2.51 µM [inhibitor, partial curve, poor fit] | –
CCCCOC(=O)Nc1nnc(CC)s1 | inconclusive: 10.3 µM [activator, partial curve, poor fit] | –
Cc1ccc(CN2C(=O)/C(=C\c3ccc(C(=O)NCc4cccnc4)cc3)Oc3ccccc32)cc1 | inactive | –
CC(NC(=O)C12CC3CC(CC(C3)C1)C2)c1ccc2c(c1)OCCO2 (stereo not drawn) | inconclusive: 20.6 µM [inhibitor, single point] | –
CCOc1ccc(-n2c(-c3cccs3)nc3ccccc3c2=O)cc1 | inconclusive: 0.891 µM [inhibitor, partial curve, poor fit] | –
Cc1nonc1OCCNc1ccc([N+](=O)[O-])cc1[N+](=O)[O-] | inconclusive: 0.282 µM [activator, full curve, poor fit] | –
O=C(c1cccs1)c1cn(CCOc2ccccc2F)c2ccccc12 | inconclusive: 11.2 µM [inhibitor, partial curve] | –
CCOC(=O)c1nccnc1C(=O)Nc1cccc(C(F)(F)F)c1 | inconclusive: 35.5 µM [activator, partial curve, poor fit] | –
Cc1ccc2nc(SC(C)C(=O)Nc3cccc([N+](=O)[O-])c3)[nH]c2c1 (stereo not drawn) | inconclusive: 29.1 µM [inhibitor, single point] | –
Cc1ccc(CN2CCC(n3nccc3NC(=O)C3CCOC3)CC2)cc1C (stereo not drawn) | inactive | –
Cc1cc(C)cc(OCC(=O)OCC(=O)Nc2c(C)n(C)n(-c3ccccc3)c2=O)c1 | inactive | –
COc1cnc(-c2ccccn2)nc1Oc1ccccc1 | inconclusive: 6.31 µM [activator, single point] | –
COc1cccc(CN2C(=O)c3ccccc3Sc3ccc(C(=O)N(C)Cc4ccccc4)cc32)c1 | inconclusive: 4.47 µM [inhibitor, full curve, poor fit] | –
